Measured values as given in patent US9801922B2, “Compositions and methods of treating cancer” (UNIVERSITY OF IOWA RESEARCH FOUNDATION, priority 2011, dated 2017).
For part of these data: At least one compound was matched to its structure with a doubt left. Some results were stated once for a whole list of compounds, not compound by compound.

Columns and labels:
Sum159 xenograft tumors = experiment: ALDH+ cells in Sum159 xenografts in vivo; parameters: species or system nude mice; conditions: 100 μM DTPP in drinking water 2 weeks; BSO 675 mg/kg i.p.; Au 2.7 mg/kg i.p.
Protocol: FIGS. 1A-D: BSO, DTPP and AUR treated SUM159, MDA-MB231 and HMEC Clonogenic survival. In Panel A (SUM 159), B (MDA-MB231) and C(HMEC), 150,000 cells/dish SUM159 or MDA-MB231 and 300,000 cells/dish were plated in 60 mm tissue culture dishes. After 48 hours, cells were given fresh complete HMECs media and treated with 100 μM BSO+/1 μM DTPP for 24 hours. 500 nM AUR were added 15 mins before the trypsinization of cells for clonogenic survival assay. In panel A-C, The error bars represent mean±1 SD of n=1 treatment dishes done in 3 separate experiments where each treatment dish was used to prepare 6-10 replicate cloning dishes for analysis. *p<0.001 as compared to Control. […] Mice growing Sum159 xenograft tumors were treated with 100 μM DTPP in drinking water for 2 weeks followed by i.p. injections of BSO 675 mg/kg followed in 2 hrs with Au 2.7 mg/kg. The day following injections tumors were harvested, digested and stained for ALDH positive cells. Each bar represents an average of at least three tumors. Error bars are SEM. *p<0.05 vs. control.
To address this question, SUM159 were treated with these drugs as described in FIG. 1, and aldehyde dehydrogenase (ALDH) activity, a marker of cancer stem cells was examined by ALDEFLUOR assay. […]

HMECs = experiment: CDCFH2 / CDCF probe labeling (intracellular hydroperoxides), HMEC; type: cell-based, human; conditions: oxidation-sensitive probe
Protocol: FIGS. 5A-5D: CDCFH2 oxidation sensitive and CDCF oxidation insensitive probe labeling of BSO, DTPP, and AUR exposed SUM159 and HMECs cells. Asynchronously growing cultures of SUM159 (Panels A, B) and HMECs (Panes C, D) were plated and treated as described in FIG. 1. Monolayer cultures were harvested and trypsinized, washed once with PBS then labeled in PBS with either CDCFH2 (Panesl A, C) or CDCF (Panels B, D)(10 μg/mL, in 0.1% DMSO 15 minutes) at 37° C. Mean fluorescence intensity (MFI) of 10,000 cells was analyzed by flow cytometry. Samples were assayed in triplicate; Mean±1 SEM of 3 separate experiments containing 3 treatment dishes per group (n=9), *p<0.001 as compared to Control.
Measurement of Intracellular Hydroperoxides: Steady-state levels of hydroperoxides were estimated using the oxidation sensitive {5-(and-6)-carboxy-2′,7′-dichlorodihydrofluorescein diacetate, (CDCFH2)} and oxidation-insensitive {5-(and-6)-carboxy-2′,7′-dichlorofluorescein diacetate, (CDCF)} fluorescent dyes purchased from Molecular Probes. Cells were plated and treated with BSO, DTPP and AUR as described above. […] Samples were analyzed using a FACScan flowcytometer (Becton Dickinson Immuno-cytometry System, INC., Mountain View, Calif.) (excitation 488 nm, emission 530 nm band-pass filter). The MFI of 10,000 cells was analyzed in each sample and corrected for autofluorescence from unlabeled cells. […]

[1] = test system: electron transport chain complex IV; experiment: Spectrophotometric ETC complex IV activity assay; type: biochemical, mice; conditions: isolated liver mitochondria; about 10 uM DTPP

CCCCCCCCCC[P+](c1ccccc1)(c1ccccc1)c1ccccc1 [DTPP, Decyl-Triphenylphosphonium]
effect on ALDH positive cells in xenografts, in words (Sum159 xenograft tumors): decrease of ALDH+cells
increase in CDCFH2 oxidation relative to control (HMECs): 1.5-2 fold
effect on complex IV activity, in words [1]: negligible affects
